Assay results: patent publication US20030004092A1
Results are given in words; binding and its absence hold for the method and conditions named. For some of these results: In cells and extracts the contact can be indirect. Some binding calls cover weakened binding; strength is not graded here. For some of these results: Where a sequence is shown, tags or fusion partners need not be part of it. Blank lines part the entries; values can stand above or below the binder they belong to.

Amino acid sequences for entries named in this document (tags omitted).
UniProt P01106: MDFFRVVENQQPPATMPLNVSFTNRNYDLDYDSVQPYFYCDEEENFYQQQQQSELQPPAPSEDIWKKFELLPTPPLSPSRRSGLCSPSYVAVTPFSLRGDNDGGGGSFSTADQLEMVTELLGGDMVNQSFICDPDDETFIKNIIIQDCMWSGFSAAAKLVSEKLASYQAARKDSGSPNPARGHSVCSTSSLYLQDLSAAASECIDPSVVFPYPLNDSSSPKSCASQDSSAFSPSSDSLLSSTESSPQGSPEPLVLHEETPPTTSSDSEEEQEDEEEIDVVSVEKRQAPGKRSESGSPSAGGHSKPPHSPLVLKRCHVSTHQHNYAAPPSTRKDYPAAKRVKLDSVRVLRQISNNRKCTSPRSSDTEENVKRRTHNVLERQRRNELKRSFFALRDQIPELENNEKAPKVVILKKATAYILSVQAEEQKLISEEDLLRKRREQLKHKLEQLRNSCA
UniProt P01108: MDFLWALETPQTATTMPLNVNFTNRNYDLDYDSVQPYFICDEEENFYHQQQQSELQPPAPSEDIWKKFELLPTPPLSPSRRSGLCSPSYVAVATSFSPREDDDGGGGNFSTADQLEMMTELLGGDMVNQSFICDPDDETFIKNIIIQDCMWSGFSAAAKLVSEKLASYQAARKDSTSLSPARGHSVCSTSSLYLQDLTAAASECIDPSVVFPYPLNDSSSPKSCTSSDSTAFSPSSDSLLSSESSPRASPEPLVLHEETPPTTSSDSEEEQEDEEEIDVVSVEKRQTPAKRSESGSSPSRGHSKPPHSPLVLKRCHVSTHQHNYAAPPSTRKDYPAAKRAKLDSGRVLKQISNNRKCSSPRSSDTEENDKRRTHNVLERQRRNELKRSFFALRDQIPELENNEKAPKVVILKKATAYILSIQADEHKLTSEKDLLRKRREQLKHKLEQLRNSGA

Experiments:
[1] = molecular target: Myc (clone from pJG4-5-based HeLa cDNA library, B42 activation domain fusion protein) (not stated (clone from a HeLa cDNA library)) (UniProt P01106); test: yeast two-hybrid, growth on leu- medium
[2] = molecular target: Myc (clone from pJG4-5-based HeLa cDNA library, B42 activation domain fusion protein) (not stated (clone from a HeLa cDNA library)) (UniProt P01106); test: yeast two-hybrid, growth on Leu- media and β-gal expression
[3] = molecular target: Myc (clone from pJG4-5-based HeLa cDNA library, B42 activation domain fusion protein) (not stated (clone from a HeLa cDNA library)) (UniProt P01106); test: yeast two-hybrid, lacZ reporter
[4] = molecular target: Myc (clone from pJG4-5-based HeLa cDNA library, B42 activation domain fusion protein) (not stated (clone from a HeLa cDNA library)) (UniProt P01106); test: yeast two-hybrid
[5] = molecular target: T1, GST-cdr2 fusion protein containing amino acids 16-192 of human cdr2 (human) (UniProt Q01850); test: GST pull-down, fluorography
T1 sequence: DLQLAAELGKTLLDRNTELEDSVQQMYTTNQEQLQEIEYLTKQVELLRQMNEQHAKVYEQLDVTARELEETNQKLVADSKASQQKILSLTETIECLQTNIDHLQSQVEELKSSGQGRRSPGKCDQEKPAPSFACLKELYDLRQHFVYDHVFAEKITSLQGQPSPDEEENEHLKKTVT

[6] = molecular target: c-Myc in mouse cerebellum (mouse) (UniProt P01108); test: co-immunoprecipitation with anti-Myc rabbit polyclonal antibody, Western blot with PCD serum
[7] = molecular target: c-Myc in mouse cerebellum (mouse) (UniProt P01108); test: co-immunoprecipitation with Myc antibodies, Western blot

binding [1]: binds | binding [2]: binds | binding [3]: binds | binding [4]: binds
B1: LexA/cdr2^65-140 bait construct (protein, not shown: large carriers)
chain: MNEQHAKVYEQLDVTARELEETNQKLVADSKASQQKILSLTETIECLQTNIDHLQSQVEELKSSGQGRRSPGKCDQ

binding [5]: binds
B2: full length in vitro translated ^35S-labeled mouse cdr2 (protein, UniProt P97817 1-455, looked up)
chain: MLADNLVEEFEMEDEPWYDHRDLQQDLQLAAELGKTLLDRNTELEDSLQQMYTTNQEQLQEIEYLTKQVELLRQMNEQHAKVYEQLDVTARELEETNQKLVAESKASQQKILSLTETIECLQTNIDHLQSQVEELKSSSQGRGRQKACDQEKPAPSFSCLKELYDLRQHFVYDHVFAEKITSLQSQQSPDEEENEHLKKAVTMLQAQLSLERKKRVSVEAEYKVVLKENSELEQQLGATDAYRARALELEAEVAEMRQMLQAEHPFVNGVEKLVPDSLFVPFKEPSQSLLEEMFLAAPEAPRKPLKRSSSETALSSLAGDDIVKDHEDTCIRRAKAVKQRGISLLHEVDTQYSALKVKYEELLKKCQQEQDSLSHKAVQTSRLLTRDLTGLVTQSEAGASGWEPTPVSPESISSPTTTPPEYKALFKEIFSCIKKTKQEIDEQRTKYPSLSSYSY
modifications: ^35S-L-methionine label

binding [6]: binds | binding [7]: binds
B3: cdr2 protein in mouse cerebellum (protein, UniProt P97817 1-455, looked up)
chain: MLADNLVEEFEMEDEPWYDHRDLQQDLQLAAELGKTLLDRNTELEDSLQQMYTTNQEQLQEIEYLTKQVELLRQMNEQHAKVYEQLDVTARELEETNQKLVAESKASQQKILSLTETIECLQTNIDHLQSQVEELKSSSQGRGRQKACDQEKPAPSFSCLKELYDLRQHFVYDHVFAEKITSLQSQQSPDEEENEHLKKAVTMLQAQLSLERKKRVSVEAEYKVVLKENSELEQQLGATDAYRARALELEAEVAEMRQMLQAEHPFVNGVEKLVPDSLFVPFKEPSQSLLEEMFLAAPEAPRKPLKRSSSETALSSLAGDDIVKDHEDTCIRRAKAVKQRGISLLHEVDTQYSALKVKYEELLKKCQQEQDSLSHKAVQTSRLLTRDLTGLVTQSEAGASGWEPTPVSPESISSPTTTPPEYKALFKEIFSCIKKTKQEIDEQRTKYPSLSSYSY
